Results are given in words; binding and its absence hold for the method and conditions named. A result given as binding can be weak or reduced; the word gives no strength.
Legend:
[1] = molecular target: T1, strep-CsoS1A (hexameric shell protein CsoS1A) (Halothiobacillus neapolitanus) (UniProt P45689); assay: turbidity
T1 sequence: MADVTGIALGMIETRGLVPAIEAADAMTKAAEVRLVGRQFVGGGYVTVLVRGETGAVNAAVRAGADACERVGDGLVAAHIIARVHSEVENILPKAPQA

[2] = molecular target: T1, strep-CsoS1A (hexameric shell protein CsoS1A) (Halothiobacillus neapolitanus); assay: native gel or EMSA

binding [1]: binds
binding [2]: binds
Substance: 6xHis-wtMR-strep (wild-type Middle Region of CsoS2, repeats 1-6) (Halothiobacillus neapolitanus) (domain or fragment)

From article doi:10.1101/2023.07.08.548221
